Experimental data as given in article PMC6085347, “Structural basis for reactivating the mutant TERT promoter by cooperative binding of p52 and ETS1” (Nature Communications, 2018).
Residue numbers refer to the chain shown, from its start. No constants are given. Whether binding was seen depends on the method and setting. Binding calls can cover weak binding; strength is not graded here. Blank lines part the entries; values can stand above or below the binder they belong to.

Columns and labels:
[1] = target: Flag-tagged ETS1_(331–441) (human); assay: pull-down; Flag-tagged ETS1_(331–441) incubated with the RHD proteins in 50 mM Tris HCl pH 7.4, 150 mM NaCl, 2 h at 4 °C, then held on anti-Flag M2 magnetic beads; eluted with FLAG peptide; SDS-PAGE, Coomassie; both purified
ETS1_(331–441) (human) = assay: crystal structure; p52-RHD, ETS1_(331–441) and a 15 bp -146C>T TERT promoter DNA mixed 1:1:1; crystals at 18 °C in 100 mM HEPES pH 7.0, 2.0 M ammonium sulfate; both purified

binding [1]: binds
B1: RelB-RHD (residues 111–405) (domain or fragment, UniProt Q01201 111-405)
chain: LGRLVSPAPGPGPQPHLVITEQPKQRGMRFRYECEGRSAGSILGESSTEASKTLPAIELRDCGGLREVEVTACLVWKDWPHRVHPHSLVGKDCTDGICRVRLRPHVSPRHSFNNLGIQCVRKKEIEAAIERKIQLGIDPYNAGSLKNHQEVDMNVVRICFQASYRDQQGQMRRMDPVLSEPVYDKKSTNTSELRICRINKESGPCTGGEELYLLCDKVQKEDISVVFSRASWEGRADFSQADVHRQIAIVFKTPPYEDLEIVEPVTVNVFLQRLTDGVCSEPLPFTYLPRDHDSY

binding (ETS1_(331–441) (human)): binds
binding [1]: binds
B2: p52-RHD (residues 35–329) (domain or fragment, human, UniProt Q00653 35-329, looked up)
chain: ADGPYLVIVEQPKQRGFRFRYGCEGPSHGGLPGASSEKGRKTYPTVKICNYEGPAKIEVDLVTHSDPPRAHAHSLVGKQCSELGICAVSVGPKDMTAQFNNLGVLHVTKKNMMGTMIQKLQRQRLRSRPQGLTEAEQRELEQEAKELKKVMDLSIVRLRFSAFLRASDGSFSLPLKPVISQPIHDSKSPGASNLKISRMDKTAGSVRGGDEVYLLCDKVQKDDIEVRFYEDDENGWQAFGDFSPTDVHKQYAIVFRTPPYHKMKIERPVTVFLQLKRKRGGDVSDSKQFTYYPLV
notes: In the crystal only residues 226-328 (p52-DSD) are ordered; two p52-DSD form a homodimer through a crystallographic 2-fold axis; also called WT p52

binding [1]: binds
B3: p52-RHD RMK>A (domain or fragment, UniProt Q00653 35-329)
chain: B2 chain with R207A, M263A, K264A
